Experimental data reported in patent US20090281296.

Amino acid sequences for entries named in this document (tags omitted). A change or cut given only in a name is not applied to a line headed by its entry.
UniProt Q9UBU3: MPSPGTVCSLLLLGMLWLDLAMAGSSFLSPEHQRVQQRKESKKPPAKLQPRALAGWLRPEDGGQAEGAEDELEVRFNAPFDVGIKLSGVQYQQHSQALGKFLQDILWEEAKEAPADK

Molecular target: Ghrelin (Homo sapiens or Rattus norvegicus) (UniProt Q9UBU3)
Test: activity in cells
Details: L-RNA (Spiegelmer); 5'-aminohexyl linked hydroxyethyl starch (HES); inhibition of Ca2+ release induced by 5 nM Ghrelin in CHO cells expressing human GHS-R1a; preincubation 15-60 min at RT or 37 C in UltraCHO with 5 mM probenecid; purified recombinant protein; mirror-image nucleic acid; variant of SOT-B11 Spiegelmer (non-HESylated)

“CGUGUGAGGCAAUAAAACUUAAGUCCGAAGGUAACCAAUCCUACACG [SOT-B11 Spiegelmer 5'-HESylated]” gave an IC50 of 6.5 nM.

For at least one entry, the source does not settle the construct or the ends of the probe.
